± gives the standard deviation of the averaged measurements. This is a selection; strong and weak results do not stand in their true shares.
Compound: Nc1ncnc2c1ncn2[C@@H]1O[C@H](COP(=O)(O)OP(=O)(O)NP(=O)(O)O)[C@@H](O)[C@H]1O [adenylyl imidodiphosphate]
Assay: NP40-soluble protein abundance relative to vehicle (solubility fold change) (ratio); higher = more soluble protein in presence of AMP-PNP
How it was run: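 Values are fold changes against the detergent-processed vehicle, based on vsn-normalised intensities. Jurkat crude lysate was treated at eight concentrations from 0.1 to 10 mM (10 min at room temperature, then 3 min at 37 °C), solubilised with 0.8% NP40 and benzonase, ultracentrifuged and analysed by TMT-labelled LC-MS/MS over three independent experiments.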

The chains behind the UniProt entries cited, without tags or fusion partners. Where a name states a change or a piece, a line headed by the entry shows the natural chain unless it says otherwise.
UniProt Q9Y3E1: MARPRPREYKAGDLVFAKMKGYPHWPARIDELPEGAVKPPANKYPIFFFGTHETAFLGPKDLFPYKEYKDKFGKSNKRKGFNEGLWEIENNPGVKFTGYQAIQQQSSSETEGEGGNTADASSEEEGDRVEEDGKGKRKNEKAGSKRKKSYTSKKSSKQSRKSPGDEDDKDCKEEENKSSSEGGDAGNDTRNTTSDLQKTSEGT
UniProt Q8N3Z3: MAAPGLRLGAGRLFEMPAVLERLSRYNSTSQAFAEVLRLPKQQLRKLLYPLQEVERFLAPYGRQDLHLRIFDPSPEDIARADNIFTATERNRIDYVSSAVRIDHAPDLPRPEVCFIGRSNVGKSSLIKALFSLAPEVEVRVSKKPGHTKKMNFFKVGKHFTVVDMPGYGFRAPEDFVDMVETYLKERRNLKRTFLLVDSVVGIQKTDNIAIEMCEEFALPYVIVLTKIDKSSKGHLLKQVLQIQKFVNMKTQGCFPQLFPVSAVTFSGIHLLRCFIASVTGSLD
UniProt Q99417: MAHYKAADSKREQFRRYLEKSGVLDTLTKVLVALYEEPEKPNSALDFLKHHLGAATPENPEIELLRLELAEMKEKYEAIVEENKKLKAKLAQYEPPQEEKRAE
UniProt Q9NRW7: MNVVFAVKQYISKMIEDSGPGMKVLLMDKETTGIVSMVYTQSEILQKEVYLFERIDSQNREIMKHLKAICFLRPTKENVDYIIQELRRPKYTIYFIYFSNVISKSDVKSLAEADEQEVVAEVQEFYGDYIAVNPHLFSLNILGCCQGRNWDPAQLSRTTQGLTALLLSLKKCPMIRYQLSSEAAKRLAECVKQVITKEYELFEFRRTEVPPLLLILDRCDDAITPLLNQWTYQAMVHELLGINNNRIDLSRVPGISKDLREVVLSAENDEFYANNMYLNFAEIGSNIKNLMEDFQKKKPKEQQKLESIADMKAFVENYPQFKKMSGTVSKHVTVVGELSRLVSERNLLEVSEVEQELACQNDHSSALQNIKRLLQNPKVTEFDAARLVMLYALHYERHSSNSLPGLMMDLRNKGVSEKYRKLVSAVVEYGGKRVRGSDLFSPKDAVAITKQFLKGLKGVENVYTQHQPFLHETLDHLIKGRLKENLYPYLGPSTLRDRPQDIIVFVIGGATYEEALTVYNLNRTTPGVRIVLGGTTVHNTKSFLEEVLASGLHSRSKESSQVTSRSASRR
UniProt P47974: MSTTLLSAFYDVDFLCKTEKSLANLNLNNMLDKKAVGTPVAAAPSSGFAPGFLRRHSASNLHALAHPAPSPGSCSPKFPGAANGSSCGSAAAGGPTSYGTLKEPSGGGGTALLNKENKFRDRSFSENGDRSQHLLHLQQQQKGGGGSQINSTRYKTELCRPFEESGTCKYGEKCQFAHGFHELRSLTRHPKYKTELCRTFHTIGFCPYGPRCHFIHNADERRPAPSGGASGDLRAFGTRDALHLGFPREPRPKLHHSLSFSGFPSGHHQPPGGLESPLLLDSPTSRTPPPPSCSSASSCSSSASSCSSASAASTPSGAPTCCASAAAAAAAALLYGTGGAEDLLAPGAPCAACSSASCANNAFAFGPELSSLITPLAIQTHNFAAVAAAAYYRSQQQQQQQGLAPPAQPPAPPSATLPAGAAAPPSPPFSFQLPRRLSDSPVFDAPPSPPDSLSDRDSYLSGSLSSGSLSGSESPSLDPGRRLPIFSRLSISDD
UniProt Q9NXU5: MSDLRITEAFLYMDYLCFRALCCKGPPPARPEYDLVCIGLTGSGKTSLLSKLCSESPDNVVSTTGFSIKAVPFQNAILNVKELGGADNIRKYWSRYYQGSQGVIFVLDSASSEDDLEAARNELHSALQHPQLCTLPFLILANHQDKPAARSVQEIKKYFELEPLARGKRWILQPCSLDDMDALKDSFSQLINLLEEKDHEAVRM
UniProt P46087: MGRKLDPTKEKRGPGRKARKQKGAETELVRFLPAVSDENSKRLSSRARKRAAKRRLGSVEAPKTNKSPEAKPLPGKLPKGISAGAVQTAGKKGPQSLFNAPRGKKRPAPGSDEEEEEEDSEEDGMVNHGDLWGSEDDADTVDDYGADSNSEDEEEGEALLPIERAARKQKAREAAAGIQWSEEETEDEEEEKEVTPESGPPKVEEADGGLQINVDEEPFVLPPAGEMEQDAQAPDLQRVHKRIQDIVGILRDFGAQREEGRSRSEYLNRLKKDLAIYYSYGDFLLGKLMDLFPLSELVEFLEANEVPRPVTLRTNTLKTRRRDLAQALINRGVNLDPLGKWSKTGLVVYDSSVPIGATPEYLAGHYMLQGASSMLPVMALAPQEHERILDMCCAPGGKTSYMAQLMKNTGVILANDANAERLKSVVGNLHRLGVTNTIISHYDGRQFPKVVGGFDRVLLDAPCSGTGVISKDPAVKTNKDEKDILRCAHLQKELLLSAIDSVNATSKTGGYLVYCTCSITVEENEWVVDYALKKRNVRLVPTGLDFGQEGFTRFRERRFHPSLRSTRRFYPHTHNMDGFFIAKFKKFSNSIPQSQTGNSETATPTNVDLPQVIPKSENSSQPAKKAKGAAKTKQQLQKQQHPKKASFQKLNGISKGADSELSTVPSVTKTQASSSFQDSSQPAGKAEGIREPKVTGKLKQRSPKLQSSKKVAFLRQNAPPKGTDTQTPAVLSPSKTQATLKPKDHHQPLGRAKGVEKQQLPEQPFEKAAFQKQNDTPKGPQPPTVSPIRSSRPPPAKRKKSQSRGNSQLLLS
UniProt Q9BSV6: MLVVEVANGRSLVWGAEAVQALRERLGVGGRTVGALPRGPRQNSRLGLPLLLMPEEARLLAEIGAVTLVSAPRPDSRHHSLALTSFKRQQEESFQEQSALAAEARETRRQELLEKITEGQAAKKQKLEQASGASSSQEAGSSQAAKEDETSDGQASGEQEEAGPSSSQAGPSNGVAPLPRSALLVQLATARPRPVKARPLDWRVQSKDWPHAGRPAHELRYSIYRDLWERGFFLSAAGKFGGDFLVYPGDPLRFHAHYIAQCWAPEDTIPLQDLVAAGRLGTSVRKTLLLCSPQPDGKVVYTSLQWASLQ

A0A024R216|Q9Y3E1 (UniProt Q9Y3E1)
NP40-soluble protein abundance (concentration: 1mM): 1 ± 0.031
NP40-soluble protein abundance (concentration: 2mM): 1.1 ± 0.17
NP40-soluble protein abundance (concentration: 4mM): 1.05 ± 0.074
NP40-soluble protein abundance (concentration: 6mM): 1.16 ± 0.074
NP40-soluble protein abundance (concentration: 8mM): 1.11 ± 0.06
NP40-soluble protein abundance (concentration: 10mM): 1.17 ± 0.14

A0A087WUP3|F8WBY6 and related entries (UniProt Q8N3Z3)
NP40-soluble protein abundance (concentration: 1mM): 0.978 ± 0.0038
NP40-soluble protein abundance (concentration: 2mM): 0.968 ± 0.016
NP40-soluble protein abundance (concentration: 4mM): 0.98776 ± 0.00061
NP40-soluble protein abundance (concentration: 6mM): 0.99 ± 0.016
NP40-soluble protein abundance (concentration: 8mM): 0.9918 ± 0.0081
NP40-soluble protein abundance (concentration: 10mM): 1.003 ± 0.0086

A0A075B716|H0YN88 and related entries (UniProt P08708)
NP40-soluble protein abundance (concentration: 1mM): 1.02 ± 0.072
NP40-soluble protein abundance (concentration: 2mM): 1.01 ± 0.071
NP40-soluble protein abundance (concentration: 4mM): 0.987 ± 0.13
NP40-soluble protein abundance (concentration: 6mM): 0.905 ± 0.12
NP40-soluble protein abundance (concentration: 8mM): 0.89 ± 0.087
NP40-soluble protein abundance (concentration: 10mM): 0.966 ± 0.15

A0A087WV05|Q99417 (UniProt Q99417)
NP40-soluble protein abundance (concentration: 1mM): 0.997 ± 0.033
NP40-soluble protein abundance (concentration: 2mM): 1.04 ± 0.086
NP40-soluble protein abundance (concentration: 4mM): 0.923 ± 0.012
NP40-soluble protein abundance (concentration: 6mM): 0.922 ± 0.041
NP40-soluble protein abundance (concentration: 8mM): 0.915 ± 0.015
NP40-soluble protein abundance (concentration: 10mM): 0.918 ± 0.059

A0A087WU65|Q9NRW7 (UniProt Q9NRW7)
NP40-soluble protein abundance (concentration: 1mM): 0.953 ± 0.012
NP40-soluble protein abundance (concentration: 2mM): 0.916 ± 0.068
NP40-soluble protein abundance (concentration: 4mM): 0.947 ± 0.033
NP40-soluble protein abundance (concentration: 6mM): 0.956 ± 0.027
NP40-soluble protein abundance (concentration: 8mM): 0.979 ± 0.035
NP40-soluble protein abundance (concentration: 10mM): 0.934 ± 0.016

A0A087WUU9|P47974 (UniProt P47974)
NP40-soluble protein abundance (concentration: 1mM): 0.999 ± 0.022
NP40-soluble protein abundance (concentration: 2mM): 1.03 ± 0.063
NP40-soluble protein abundance (concentration: 4mM): 0.9879 ± 0.0024
NP40-soluble protein abundance (concentration: 6mM): 0.978 ± 0.018
NP40-soluble protein abundance (concentration: 8mM): 0.982 ± 0.036
NP40-soluble protein abundance (concentration: 10mM): 0.962 ± 0.023

A0A087WUW9|Q9NXU5 (UniProt Q9NXU5)
NP40-soluble protein abundance (concentration: 1mM): 1 ± 0.053
NP40-soluble protein abundance (concentration: 2mM): 1.013 ± 0.0089
NP40-soluble protein abundance (concentration: 4mM): 1.04 ± 0.05
NP40-soluble protein abundance (concentration: 6mM): 1 ± 0.04
NP40-soluble protein abundance (concentration: 8mM): 0.974 ± 0.044
NP40-soluble protein abundance (concentration: 10mM): 0.999 ± 0.043

A0A087WV73|P46087 and related entries (UniProt P46087)
NP40-soluble protein abundance (concentration: 1mM): 1.04 ± 0.038
NP40-soluble protein abundance (concentration: 2mM): 1.12 ± 0.068
NP40-soluble protein abundance (concentration: 4mM): 1.17 ± 0.05
NP40-soluble protein abundance (concentration: 6mM): 1.28 ± 0.067
NP40-soluble protein abundance (concentration: 8mM): 1.34 ± 0.094
NP40-soluble protein abundance (concentration: 10mM): 1.43 ± 0.093

A0A024R4N9|Q9BSV6 and related entries (UniProt Q9BSV6)
NP40-soluble protein abundance (concentration: 1mM): 0.99 ± 0.014
NP40-soluble protein abundance (concentration: 2mM): 0.962 ± 0.031
NP40-soluble protein abundance (concentration: 4mM): 0.9702 ± 0.0062
NP40-soluble protein abundance (concentration: 6mM): 0.981 ± 0.047
NP40-soluble protein abundance (concentration: 8mM): 0.938 ± 0.041
NP40-soluble protein abundance (concentration: 10mM): 0.952 ± 0.048
